According to patent US20100144755A1 (Glaxo Group Limited, priority 2006, published 2010):
Where a name gives a salt, the structure may show the parent alone. Some of these results come from one statement about several compounds together.

Protein sequences, listed by entry. Tags and fused reporters are not part of them.
UniProt Q16539, whole entry: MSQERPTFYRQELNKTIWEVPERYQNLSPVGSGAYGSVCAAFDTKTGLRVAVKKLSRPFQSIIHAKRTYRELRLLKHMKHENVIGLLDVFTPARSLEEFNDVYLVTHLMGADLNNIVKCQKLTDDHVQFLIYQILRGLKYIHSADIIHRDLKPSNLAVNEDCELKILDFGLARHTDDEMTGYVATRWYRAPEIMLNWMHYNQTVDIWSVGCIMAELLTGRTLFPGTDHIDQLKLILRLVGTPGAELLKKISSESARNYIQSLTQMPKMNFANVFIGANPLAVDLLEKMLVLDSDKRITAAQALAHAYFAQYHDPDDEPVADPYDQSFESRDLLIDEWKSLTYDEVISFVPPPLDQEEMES

Assays:
[1] = tested on: LPS-stimulated TNFalpha production in human whole blood; test: LPS-stimulated cytokine production in human whole blood; type: cell-based; details: LPS 50 ng/ml final, 4 hour incubation, ELISA, result in words
[2] = tested on: TNF-stimulated IL8 production by human neutrophils; test: TNF-stimulated IL-8 production from human neutrophils; type: cell-based; details: TNF 100 ng/ml, about 20 hrs, screened up to 100 nM; result in words;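 also: IL-8 in cell-free supernatant quantified by sandwich ELISA, inhibition calculated against a compound-free control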
Recombinant human p38α = target: T1, Recombinant human p38α (Homo sapiens, UniProt Q16539); test: Time-resolved fluorescence resonance energy transfer (TR-FRET) kinase assay (standard and low volume); type: biochemical; parameters: key: active: a pIC50 of greater than 4.6 up to about a pIC50 of greater than 10.0; details: MKK6-activated p38α 100 pM, GST-ATF2 substrate; result in words
T1 construct: His; made in house

| Compound | activity (IC50) against LPS-stimulated cytokine production in human whole blood [1] | activity (IC50) against TNF-stimulated IL-8 production from human neutrophils [2] | activity (pIC50) in TR-FRET p38α kinase assay (Recombinant human p38α) |
| --- | --- | --- | --- |
| Cc1ccc(NC(=O)c2ccsc2)cc1-c1nc(NC2CC(C)(C)NC(C)(C)C2)nc2c1ccc(=O)n2-c1c(F)cccc1F [31(e), N-(3-{8-(2,6-difluorophenyl)-7-oxo-2-[(2,2,6,6-tetramethyl-4-piperidinyl)amino]-7,8-dihydropyrido[2,3-d]pyrimidin-4-yl}-4-methylphenyl)-3-thiophenecarboxamide] | active | active | active |
| CCCNC(=O)c1ccc(C)c(-c2nc(NCCNC)nc3c2ccc(=O)n3-c2c(F)cccc2F)c1 [56(d), 3-(8-(2,6-difluorophenyl)-2-{[2-(methylamino)ethyl]amino}-7-oxo-7,8-dihydropyrido[2,3-d]pyrimidin-4-yl)-4-methyl-N-propylbenzamide] | active | active | active |
| CNCCNc1nc(-c2cc(C(=O)NC(C)C)ccc2C)c2ccc(=O)n(-c3c(F)cccc3F)c2n1 [Example 57, 3-(8-(2,6-difluorophenyl)-2-{[2-(methylamino)ethyl]amino}-7-oxo-7,8-dihydropyrido[2,3-d]pyrimidin-4-yl)-4-methyl-N-(1-methylethyl)benzamide] | active | active | active |
| CNCCNc1nc(-c2cc(C(=O)Nc3ccc(F)cc3)ccc2C)c2ccc(=O)n(-c3c(F)cccc3F)c2n1 [Example 60, 3-(8-(2,6-difluorophenyl)-2-{[2-(methylamino)ethyl]amino}-7-oxo-7,8-dihydropyrido[2,3-d]pyrimidin-4-yl)-N-(4-fluorophenyl)-4-methylbenzamide] | active | active | active |
| Cc1ccc(C(=O)NC2CCCC2)cc1-c1nc(NCc2ncc[nH]2)nc2c1ccc(=O)n2-c1c(F)cccc1F [Example 76, N-cyclopentyl-3-{8-(2,6-difluorophenyl)-2-[(1H-imidazol-2-ylmethyl)amino]-7-oxo-7,8-dihydropyrido[2,3-d]pyrimidin-4-yl}-4-methylbenzamide] | active | active |  |
| Cc1ccc(C(=O)NCc2ccccc2)cc1-c1nc(NCc2ncc[nH]2)nc2c1ccc(=O)n2-c1c(F)cccc1F [Example 77, 3-{8-(2,6-difluorophenyl)-2-[(1H-imidazol-2-ylmethyl)amino]-7-oxo-7,8-dihydropyrido[2,3-d]pyrimidin-4-yl}-4-methyl-N-(phenylmethyl)benzamide] | active | active |  |
| Cc1ccc(C(=O)NC2CCC2)cc1-c1nc(NC(CO)CO)nc2c1ccc(=O)n2-c1c(F)cccc1F [Example 82, N-cyclobutyl-3-(8-(2,6-difluorophenyl)-2-{[2-hydroxy-1-(hydroxymethyl)ethyl]-amino}-7-oxo-7,8-dihydropyrido[2,3-d]pyrimidin-4-yl)-4-methylbenzamide trifluoroacetate] | active | active |  |
| Cc1ccc(C(=O)NCC2CC2)cc1-c1nc(NC(CO)CO)nc2c1ccc(=O)n2-c1c(F)cccc1F [Example 87, N-(cyclopropylmethyl)-3-(8-(2,6-difluorophenyl)-2-{[2-hydroxy-1-(hydroxymethyl)ethyl]amino}-7-oxo-7,8-dihydropyrido[2,3-d]pyrimidin-4-yl)-4-methylbenzamide trifluoroacetate] | active | active |  |
